PubChem BioAssay AID1053208 – Peter MacCallum Cancer Centre | 2014

Purpose: 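Synthetic lethal interactions between gene loss and doxorubicin in osteosarcoma cells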 (primary screen)
Cell system: mouse osteosarcoma cells, early-passage culture from an engineered mouse model of fibroblastic bone tumour
Knock-down reagent: siRNA pool against mouse genes, 40 nM
Duration: about 120 h (48 h before drug, then 72 h with drug)
Treatment: doxorubicin 100 nM for 72 h, roughly 30-40% inhibitory dose
Measurement: 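Luminescent ATP signal taken as viability with or without 100 nM doxorubicin for 72 h; mean of two wells set against non-targeting siRNA and turned into robust z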
Scale: viability z-score with doxorubicin: higher = more viable cells under doxorubicin; viability z-score without drug: higher = more viable cells with knock-down alone
Active means: 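a pool counts as active when its viability z-score with doxorubicin is -2 or below and its z-score without drug lies between -2 and 2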
The deposit covers about 17,000 reagents; this is a random part of them. 788 of all reagents (4.7%) count as active. 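Calls rest on z-score classes alone; an extra cut-off of viability at most 70% of control was not applied to them.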 A reagent listed more than once was tested more than once; the source does not tell the runs apart. Not all columns of the deposit are shown.

The opening 2 records as a preview:
{"Gene": "Sdhc (GeneID 66052)", "combined z-score class": "no change with or without drug", "viability z-score with doxorubicin": -0.56, "viability z-score without drug": 0.17, "Outcome": "inactive"}
{"Gene": "Snx2 (GeneID 67804)", "combined z-score class": "no change with or without drug", "viability z-score with doxorubicin": 0, "viability z-score without drug": 0.17, "Outcome": "inactive"}

The list itself, from the start:
{"Gene": "Sdhc (GeneID 66052)", "combined z-score class": "no change with or without drug", "viability z-score with doxorubicin": -0.56, "viability z-score without drug": 0.17, "Outcome": "inactive"}
{"Gene": "Snx2 (GeneID 67804)", "combined z-score class": "no change with or without drug", "viability z-score with doxorubicin": 0, "viability z-score without drug": 0.17, "Outcome": "inactive"}
{"Gene": "Mcm6 (GeneID 17219)", "combined z-score class": "low cell count without drug only", "viability z-score with doxorubicin": 0.34, "viability z-score without drug": -2.19, "Outcome": "inactive"}
{"Gene": "Tspyl5 (GeneID 239364)", "combined z-score class": "no change with or without drug", "viability z-score with doxorubicin": 0.67, "viability z-score without drug": 1.01, "Outcome": "inactive"}
{"Gene": "Col14a1 (GeneID 12818)", "combined z-score class": "no change with or without drug", "viability z-score with doxorubicin": 0.34, "viability z-score without drug": 0.17, "Outcome": "inactive"}
{"Gene": "Pomt2 (GeneID 217734)", "combined z-score class": "no change with or without drug", "viability z-score with doxorubicin": 0.45, "viability z-score without drug": 0.17, "Outcome": "inactive"}
{"Gene": "Dsg2 (GeneID 13511)", "combined z-score class": "no change with or without drug", "viability z-score with doxorubicin": 0.45, "viability z-score without drug": -0.17, "Outcome": "inactive"}
{"Gene": "Il31ra (GeneID 218624)", "combined z-score class": "no change with or without drug", "viability z-score with doxorubicin": -0.45, "viability z-score without drug": -1.18, "Outcome": "inactive"}
{"Gene": "Csn2 (GeneID 12991)", "combined z-score class": "no change with or without drug", "viability z-score with doxorubicin": 0.56, "viability z-score without drug": 0.84, "Outcome": "inactive"}
{"Gene": "Ptger1 (GeneID 19216)", "combined z-score class": "no change with or without drug", "viability z-score with doxorubicin": 1.12, "viability z-score without drug": 0.84, "Outcome": "inactive"}
{"Gene": "Polr2b (GeneID 231329)", "combined z-score class": "low cell count with doxorubicin only", "viability z-score with doxorubicin": -2.7, "viability z-score without drug": -0.84, "Outcome": "active"}
{"Gene": "Rarg (GeneID 19411)", "combined z-score class": "no change with or without drug", "viability z-score with doxorubicin": 1.46, "viability z-score without drug": 0.17, "Outcome": "inactive"}
{"Gene": "Wtap (GeneID 60532)", "combined z-score class": "no change with or without drug", "viability z-score with doxorubicin": -1.12, "viability z-score without drug": -0.17, "Outcome": "inactive"}
{"Gene": "Chka (GeneID 12660)", "combined z-score class": "no change with or without drug", "viability z-score with doxorubicin": -0.11, "viability z-score without drug": 0.34, "Outcome": "inactive"}
{"Gene": "9230112E08Rik (GeneID 320800)", "combined z-score class": "no change with or without drug", "viability z-score with doxorubicin": 0.22, "viability z-score without drug": -0.17, "Outcome": "inactive"}
{"Gene": "9230112E08Rik (GeneID 320800)", "combined z-score class": "high cell count with doxorubicin only", "viability z-score with doxorubicin": 2.25, "viability z-score without drug": 1.52, "Outcome": "inactive"}
{"Gene": "Cxxc1 (GeneID 74322)", "combined z-score class": "no change with or without drug", "viability z-score with doxorubicin": 0.9, "viability z-score without drug": -0.17, "Outcome": "inactive"}
{"Gene": "Syvn1 (GeneID 74126)", "combined z-score class": "no change with or without drug", "viability z-score with doxorubicin": -0.9, "viability z-score without drug": -1.85, "Outcome": "inactive"}
{"Gene": "Nr4a2 (GeneID 18227)", "combined z-score class": "no change with or without drug", "viability z-score with doxorubicin": 0.67, "viability z-score without drug": -0.34, "Outcome": "inactive"}
